PubChem BioAssay AID493246, Drosophila RNAi Screening Center – 2011
In all, the deposit lists about 21,000 reagents; this is a random part of those with a known target gene and a result. In the full data, 429 (2%) are marked active. 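Values are raw and not normalised between plates; calls rest on per-plate z-scores that were not deposited.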 The numbers tell different reagents against one gene apart. No sequences are given here. The record does not give: the amount of reagent, the time to read-out.

Test: 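Genes fly cells need to grow and stay alive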 (primary screen)
Cell system: Drosophila Kc and S2R+ cells
Reagent: long dsRNA against Drosophila genes
Measurement: 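Cell number per well after knock-down, printed as raw plate values; calls were based on per-plate z-scores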
Reading the numbers: Kc cell number and S2R+ cell number: higher = more cells remaining
Hit rule: 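Counted as a hit if cell number falls by a z-score of at least 3 within its plate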

| target gene | reagent | Kc cell number, rep 1 | Kc cell number, rep 2 | S2R+ cell number, rep 1 | S2R+ cell number, rep 2 | Outcome |
| --- | --- | --- | --- | --- | --- | --- |
| Cerk (GeneID 40640) | 1 | 1.63e6 | 1.67e6 | 1.16e6 | 1.27e6 | inactive |
| Cdc45 (GeneID 31052) | 1 | 5.73e5 | – | 8.37e5 | – | inactive |
| Cdc45 (GeneID 31052) | 2 | 1.57e6 | 1.71e6 | 1.00e6 | 1.16e6 | inactive |
| crol (GeneID 34592) | 1 | 1.39e6 | 1.47e6 | 1.07e6 | 1.15e6 | inactive |
| Nct (GeneID 42964) | 1 | 1.58e6 | 1.58e6 | 1.35e6 | 1.36e6 | inactive |
| CG4676 (GeneID 36465) | 1 | 1.72e6 | 1.79e6 | 1.18e6 | 1.31e6 | inactive |
| CG13492 (GeneID 37487) | 1 | 1.58e6 | 1.59e6 | 1.25e6 | 3.70e5 | inactive |
| Ns1 (GeneID 42060) | 1 | 1.25e6 | 1.25e6 | 8.34e5 | 9.32e5 | inactive |
| CG30065 (GeneID 246431) | 1 | 1.48e6 | 1.39e6 | 1.02e6 | 1.14e6 | inactive |
| Pms2 (GeneID 36705) | 1 | 1.08e6 | 1.04e6 | 7.72e5 | 6.49e5 | inactive |
| CG5577 (GeneID 39985) | 1 | 1.40e6 | 1.40e6 | 1.26e6 | 1.31e6 | inactive |
| CG7130 (GeneID 40450) | 1 | 1.58e6 | 1.59e6 | 1.42e6 | 1.50e6 | inactive |
| CG10903 (GeneID 40952) | 1 | 1.34e6 | 1.44e6 | 1.21e6 | 1.35e6 | inactive |
| Not3 (GeneID 35501) | 1 | 1.19e6 | 1.30e6 | 9.33e5 | 9.99e5 | inactive |
| CG1998 (GeneID 32300) | 1 | 1.66e6 | 1.79e6 | 1.10e6 | 1.22e6 | inactive |
| CG5397 (GeneID 33313) | 1 | 1.26e6 | 1.36e6 | 1.18e6 | 1.20e6 | inactive |
| Cyp6a8 (GeneID 36666) | 1 | 1.38e6 | 1.54e6 | 1.13e6 | 1.02e6 | inactive |
| CG15699 (retired record) (GeneID 36756) | 1 | 1.77e6 | 1.76e6 | 1.09e6 | 1.21e6 | inactive |
| CG31089 (GeneID 43135) | 1 | 1.40e6 | 1.43e6 | 9.58e5 | 1.05e6 | inactive |
| CG17048 (GeneID 36479) | 1 | 1.68e6 | 1.76e6 | 1.17e6 | 1.36e6 | inactive |
| Mst77F (GeneID 40304) | 1 | 1.30e6 | 1.43e6 | 1.30e6 | 1.32e6 | inactive |
| Daao2 (GeneID 33955) | 1 | 1.21e6 | 1.32e6 | 5.60e5 | 7.86e5 | inactive |
| CG4945 (GeneID 36850) | 1 | 1.33e6 | 1.38e6 | 1.20e6 | 1.26e6 | inactive |
| CG1572 (GeneID 32098) | 1 | 6.30e5 | – | 8.34e5 | – | inactive |
| fz4 (GeneID 31659) | 1 | 1.55e6 | 1.52e6 | 1.05e6 | 1.16e6 | inactive |
| CG32801 (GeneID 31152) | 1 | 1.52e6 | 1.48e6 | 1.05e6 | 1.14e6 | inactive |
| BthD (GeneID 32317) | 1 | 1.68e6 | 1.45e6 | 1.10e6 | 1.22e6 | inactive |
| muc (GeneID 34021) | 1 | 1.67e6 | 1.55e6 | 1.20e6 | 1.39e6 | inactive |
| crb (GeneID 42896) | 1 | 1.53e6 | 1.60e6 | 1.14e6 | 1.15e6 | inactive |
| CG11737 (GeneID 41009) | 1 | 1.58e6 | 1.77e6 | 1.24e6 | 1.28e6 | inactive |
| Fas3 (GeneID 35097) | 1 | 1.49e6 | 1.58e6 | 9.94e5 | 1.24e6 | inactive |
| Fas3 (GeneID 35097) | 2 | 1.67e6 | 1.58e6 | 1.25e6 | 1.48e6 | inactive |
| Sac1 (GeneID 38137) | 1 | 1.35e6 | 1.46e6 | 9.83e5 | 9.91e5 | inactive |
| shot (GeneID 36542) | 1 | 1.45e6 | 1.43e6 | 8.83e5 | 1.02e6 | inactive |
| shot (GeneID 36542) | 2 | 1.42e6 | 1.38e6 | 9.65e5 | 1.12e6 | inactive |
| shot (GeneID 36542) | 3 | 1.39e6 | 1.42e6 | 1.04e6 | 1.13e6 | inactive |
| CG31436 (GeneID 318734) | 1 | 1.63e6 | 1.77e6 | 1.08e6 | 1.17e6 | inactive |
| nwk (GeneID 39052) | 1 | 1.71e6 | 1.60e6 | 1.22e6 | 1.16e6 | inactive |
| CG34286 (GeneID 5740178) | 1 | 1.69e6 | 1.81e6 | 1.12e6 | 1.10e6 | inactive |
| Zasp52 (GeneID 36740) | 1 | 1.56e6 | 1.58e6 | 9.72e5 | 1.08e6 | inactive |
| Zasp52 (GeneID 36740) | 2 | 1.60e6 | 1.64e6 | 1.11e6 | 1.28e6 | inactive |
| Ppt1 (GeneID 31805) | 1 | 1.57e6 | 1.57e6 | 1.12e6 | 1.21e6 | inactive |
| Mcm2 (GeneID 40973) | 1 | 1.99e6 | 2.23e6 | 1.24e6 | 1.41e6 | inactive |
| Arp5 (GeneID 42173) | 1 | 1.60e6 | 1.75e6 | 1.31e6 | 1.38e6 | inactive |
| cl (GeneID 43938) | 1 | 1.28e6 | 1.33e6 | 6.51e5 | 9.45e5 | inactive |
| Lcp65Af (GeneID 45017) | 1 | 1.54e6 | 1.57e6 | 1.22e6 | 1.26e6 | inactive |
| CG31446 (GeneID 318741) | 1 | 1.61e6 | 1.82e6 | 1.15e6 | 1.32e6 | inactive |
| Lk6 (GeneID 44672) | 1 | 1.42e6 | 1.68e6 | 9.94e5 | 1.22e6 | inactive |
| Lk6 (GeneID 44672) | 2 | 1.52e6 | 1.58e6 | 1.10e6 | 1.16e6 | inactive |
| rho-6 (GeneID 34640) | 1 | 1.53e6 | 1.64e6 | 1.25e6 | 1.31e6 | inactive |
| CG7970 (GeneID 38205) | 1 | 1.31e6 | 1.39e6 | 1.16e6 | 1.21e6 | inactive |
| CG34347 (GeneID 5740668) | 1 | 1.24e6 | 1.45e6 | 1.06e6 | 1.09e6 | inactive |
| CG34347 (GeneID 5740668) | 2 | 1.53e6 | 1.65e6 | 1.10e6 | 1.12e6 | inactive |
| CG34347 (GeneID 5740668) | 3 | 1.36e6 | 1.49e6 | 9.77e5 | 1.10e6 | inactive |
| SmydA-5 (GeneID 35538) | 1 | 1.54e6 | 1.53e6 | 1.35e6 | 1.45e6 | inactive |
| CG13625 (GeneID 42931) | 1 | 1.45e6 | 1.57e6 | 9.49e5 | 1.07e6 | inactive |
| CG12912 (GeneID 36075) | 1 | 1.48e5 | 2.25e5 | 3.11e5 | 3.80e5 | active |
| CG5217 (GeneID 42311) | 1 | 1.58e6 | 1.55e6 | 1.11e6 | 1.21e6 | inactive |
| Rnp4F (GeneID 31448) | 1 | 5.53e5 | – | 8.66e5 | – | inactive |

Reformatted: 10 of the entries above.
{"target gene":"BthD (GeneID 32317)","reagent":1,"Kc cell number, rep 1":1.68e6,"Kc cell number, rep 2":1.45e6,"S2R+ cell number, rep 1":1.10e6,"S2R+ cell number, rep 2":1.22e6,"Outcome":"inactive"}
{"target gene":"muc (GeneID 34021)","reagent":1,"Kc cell number, rep 1":1.67e6,"Kc cell number, rep 2":1.55e6,"S2R+ cell number, rep 1":1.20e6,"S2R+ cell number, rep 2":1.39e6,"Outcome":"inactive"}
{"target gene":"crb (GeneID 42896)","reagent":1,"Kc cell number, rep 1":1.53e6,"Kc cell number, rep 2":1.60e6,"S2R+ cell number, rep 1":1.14e6,"S2R+ cell number, rep 2":1.15e6,"Outcome":"inactive"}
{"target gene":"CG11737 (GeneID 41009)","reagent":1,"Kc cell number, rep 1":1.58e6,"Kc cell number, rep 2":1.77e6,"S2R+ cell number, rep 1":1.24e6,"S2R+ cell number, rep 2":1.28e6,"Outcome":"inactive"}
{"target gene":"Fas3 (GeneID 35097)","reagent":1,"Kc cell number, rep 1":1.49e6,"Kc cell number, rep 2":1.58e6,"S2R+ cell number, rep 1":9.94e5,"S2R+ cell number, rep 2":1.24e6,"Outcome":"inactive"}
{"target gene":"Fas3 (GeneID 35097)","reagent":2,"Kc cell number, rep 1":1.67e6,"Kc cell number, rep 2":1.58e6,"S2R+ cell number, rep 1":1.25e6,"S2R+ cell number, rep 2":1.48e6,"Outcome":"inactive"}
{"target gene":"Sac1 (GeneID 38137)","reagent":1,"Kc cell number, rep 1":1.35e6,"Kc cell number, rep 2":1.46e6,"S2R+ cell number, rep 1":9.83e5,"S2R+ cell number, rep 2":9.91e5,"Outcome":"inactive"}
{"target gene":"shot (GeneID 36542)","reagent":1,"Kc cell number, rep 1":1.45e6,"Kc cell number, rep 2":1.43e6,"S2R+ cell number, rep 1":8.83e5,"S2R+ cell number, rep 2":1.02e6,"Outcome":"inactive"}
{"target gene":"shot (GeneID 36542)","reagent":2,"Kc cell number, rep 1":1.42e6,"Kc cell number, rep 2":1.38e6,"S2R+ cell number, rep 1":9.65e5,"S2R+ cell number, rep 2":1.12e6,"Outcome":"inactive"}
{"target gene":"shot (GeneID 36542)","reagent":3,"Kc cell number, rep 1":1.39e6,"Kc cell number, rep 2":1.42e6,"S2R+ cell number, rep 1":1.04e6,"S2R+ cell number, rep 2":1.13e6,"Outcome":"inactive"}
